Measurements published in patent US20230040909A1 (priority 2019, published 2023).
For at least one compound, name, drawing or mass did not settle the structure.

Target: hKCNQ1/MinK (Homo sapiens, UniProt P51787)
Type: biochemical

| Structure (SMILES) | hKCNQ1 channel inhibition |
| --- | --- |
| CC1(C)CCC(NC(=O)c2cc3c(Cl)cc(Cl)cc3[nH]2)CC1 [NITD-304] | inhibit the hKCNQ1 channel |
| CC1(C)CCC(NC(=O)c2cc3c(F)cc(F)cc3[nH]2)CC1 [NITD-349] | inhibit the hKCNQ1 channel |
